Results as given in patent US11215617B2, “Treatment of metastatic prostate cancer” (The Regents of the University of California, priority 2013, dated 2022).
At least one structure is not confirmed: it was looked up by name or label, or the drawing left a doubt.

System: CWR22rv1 cells
Test: Cell growth assay
Type: cell-based
Details: different doses of abiraterone, 48 hours

C[C@]12CC[C@H](O)CC1=CC[C@@H]1[C@@H]2CC[C@]2(C)C(c3cccnc3)=CC[C@@H]12 [abiraterone]
resistance of CWR22rv1 cells relative to LNCaP and C4-2B cells: more resistant than LNCaP and C4-2B cells
